Values scatter widely in this assay.
B1: human tRNA-Pro; a variant is named by its letters at N, in order (parent)
chain: GGCTCGTTGGTCTAGNGGTATGATTCTCGCTTAGGGTGCGAGAGGTCCCGGGTTCNNATCCCGGACGAGCCC

Assays:
[1] = variants of: B1; experiment: tRNA Pol-III promoter activity, log2 (circRNA frequency / plasmid DNA frequency) (log2 ratio); higher = stronger promoter activity; conditions: HEK293T; construct: no Pol-II promoter ((-)CMV library)
[2] = variants of: B1; experiment: tRNA 3' processing efficiency (processed reads / all reads, maximum-likelihood estimate) (fraction); higher = more efficient 3' processing; conditions: HEK293T; construct: no Pol-II promoter ((-)CMV library)

Variant	tRNA Pol-III promoter activity (log2) [1]	tRNA 3' processing efficiency [2]
GGCTCGTTGGTCTAGTGGTATGATTCTCGCTTAGGGTGCGAGAGGTCCCGGGATCAGATCCCGGACGAGCCC [TAG T53A]	3.26	0.4
GGCTCGTTGGTCTAGGGGTATGATTCTCGCTTAGGGTGCGAGAGGTCCCGGGTTGGAGTCCCGGACGAGCCC [GGA C55G A58G]	2.4	0.38
GGCTCGTAGGTCTAGTGGTATGATTCTCGCTTAGGGTGCGAGAGGTCCCGGGTTCTCGTCCCGGACGAGCCC [TTC T8A A58G]	6.53	0.22
GGCTCGTTGGTCTAGGGGTCTGATTCTCGCTTAGGGTGCGAGAGGTCCCGGGTTCAATGCCCGGACGAGCCC [GAA A20C A58T T59G]	3.45	0.25
GGCTCGTTAGTCTAGGGGGATGATTCTCGCTTAGGGTGCGAGAGGTCCCGGGTTCACATCCCGGACGAGCCC [GAC G9A T19G]	3.75	0.29
GGCTCGTTGGTCTATCGGTATGATTCTCGCTTAGGGTGCGAGAGGTCCCGGGTTCACATCCCGGACGAGCCC [CAC G15T]	5.26	0.57
GGCTCGTTGGTCTAGCGGGATGATTCTCGCTTAGGGTGCGAGAGGTCCCGGGTTCATATCCCGGACGAGCCC [CAT T19G]	4.03	0.45
GGCTCGTTGGTCTAGTGGTGTGATTCTCGCTTAGGGTGCGAGAGGTCCCGGGTTCTATTCCCGGACGAGCCC [TTA A20G A58T]	4.59	0.27
GGCTCGTTGGTCTCGGGGTATGATTCTCGCTTAGGGTGCGAGAGGTCCCGGGTTCAACACCCGGACGAGCCC [GAA A14C A58C T59A]	3.93	0.13
GGCTCGTTGGTCTAGGACTATGATTCTCGCTTAGGGTGCGAGAGGTCCCGGGTTCGTATCCCGGACGAGCCC [GGT G17A G18C]	6.25	0.1
GGCTCGTTGGTCTAGCGGTATGATTCTCGCTTAGGGTGCGAGAGGTCCCGGGTTTAATTCCCGGACGAGCCC [CAA C55T A58T]	3.65	0.07
GGCTCGTTAGTCTAGGGGTTTGATTCTCGCTTAGGGTGCGAGAGGTCCCGGGTTCAAATCCCGGACGAGCCC [GAA G9A A20T]	1.36	0.5
GGCTCGTTGGTCTAGGGGTGTGATTCTCGCTTAGGGTGCGAGAGGTCCCGGGTTCCACTCCCGGACGAGCCC [GCA A20G A58C]	3.25	0.4
GGCTCGTTGGTCTAGCGGTATGATTCTCGCTTAGGGTGCGAGAGGTCCCGGGTTATAATCCCGGACGAGCCC [CTA C55A]	2.93	0.33
GGCTCGTTGGTCTAGGGGTTTGATTCTCGCTTAGGGTGCGAGAGGTCCCGGGTTCAAAACCCGGACGAGCCC [GAA A20T T59A]	0.624	0.31
GGCTCGTAGGTCTAGGGGTATGATTCTCGCTTAGGGTGCGAGAGGTCCCGGGTTCGATTCCCGGACGAGCCC [GGA T8A A58T]	3.67	0.2
GGCTCGTCGGTCTAGGGGTATGATTCTCGCTTAGGGTGCGAGAGGTCCCGGGATCAAAGCCCGGACGAGCCC [GAA T8C T53A T59G]	3.94	0.25
GGCTCGTCGGTCTCGGGGTATGATTCTCGCTTAGGGTGCGAGAGGTCCCGGGTTCAACTCCCGGACGAGCCC [GAA T8C A14C A58C]	6.51	0.78
GGCTCGTTGGTCTTGCGGTATGATTCTCGCTTAGGGTGCGAGAGGTCCCGGGTTCAAAACCCGGACGAGCCC [CAA A14T T59A]	4.53	0.67

Individual results from above.
tRNA 3' processing efficiency [2], GGCTCGTTGGTCTAGCGGTATGATTCTCGCTTAGGGTGCGAGAGGTCCCGGGTTATAATCCCGGACGAGCCC [CTA C55A] is entered as 0.33
tRNA 3' processing efficiency [2], GGCTCGTCGGTCTAGGGGTATGATTCTCGCTTAGGGTGCGAGAGGTCCCGGGATCAAAGCCCGGACGAGCCC [GAA T8C T53A T59G] is entered as 0.25
